Assay results taken from publication PMC8000408, “Inhibition of NUPR1–Karyopherin β1 Binding Increases Anticancer Drug Sensitivity” (International Journal of Molecular Sciences, 2021).
No constants are given. Whether binding was seen depends on the method and setting. For some assays here: In cells and extracts the contact can be indirect. Some entries that bind do so weakly or less than the wild type. For some assays here: Tags and fused reporters may be left off the sequences shown.

Protein sequences, listed by entry. Tags and fused reporters are not part of them.
UniProt Q14974: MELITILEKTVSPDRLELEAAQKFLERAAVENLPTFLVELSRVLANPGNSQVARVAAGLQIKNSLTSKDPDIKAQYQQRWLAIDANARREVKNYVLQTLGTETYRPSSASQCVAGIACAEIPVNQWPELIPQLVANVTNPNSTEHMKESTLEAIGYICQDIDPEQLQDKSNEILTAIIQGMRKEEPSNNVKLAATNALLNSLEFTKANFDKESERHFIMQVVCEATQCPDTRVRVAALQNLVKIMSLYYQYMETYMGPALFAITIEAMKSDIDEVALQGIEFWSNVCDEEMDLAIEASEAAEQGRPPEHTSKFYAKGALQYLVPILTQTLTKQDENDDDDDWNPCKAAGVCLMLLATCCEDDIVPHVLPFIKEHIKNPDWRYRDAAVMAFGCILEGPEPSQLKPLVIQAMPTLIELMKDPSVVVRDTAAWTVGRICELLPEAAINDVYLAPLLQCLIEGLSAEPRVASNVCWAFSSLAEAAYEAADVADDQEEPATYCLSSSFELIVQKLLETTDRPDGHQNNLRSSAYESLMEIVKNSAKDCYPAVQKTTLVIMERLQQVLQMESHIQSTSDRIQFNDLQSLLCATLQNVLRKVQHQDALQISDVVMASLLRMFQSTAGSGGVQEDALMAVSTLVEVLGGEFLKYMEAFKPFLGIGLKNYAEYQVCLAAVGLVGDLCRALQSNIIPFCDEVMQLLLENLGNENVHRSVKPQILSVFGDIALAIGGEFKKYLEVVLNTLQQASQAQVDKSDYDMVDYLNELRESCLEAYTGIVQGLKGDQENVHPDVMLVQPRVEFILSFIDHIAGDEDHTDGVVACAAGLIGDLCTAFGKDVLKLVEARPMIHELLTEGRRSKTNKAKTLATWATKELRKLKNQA

T1: GST-NUPR1 (nuclear protein-1) recombinant protein (UniProt O60356)
T1 sequence: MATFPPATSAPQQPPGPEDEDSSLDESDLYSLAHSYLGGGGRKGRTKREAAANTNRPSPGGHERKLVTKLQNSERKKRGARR


Key:
[1] = biological target: T1, GST-NUPR1 (nuclear protein-1) recombinant protein; experiment: single-molecule pull-down (TIRF microscopy); NUPR1 immobilised on the imaging surface; 5 nM Cy5-labeled KPNB1 or Cy5-labeled KPNA, incubated with various concentrations of ATZ-502 for 30 min (on ice, per the legend); 633-nm excitation, ambient temperature; both purified
[2] = biological target: KPNB1 (in the immunoprecipitation) (UniProt Q14974); experiment: co-IP; KPNB1 antibody on protein G magnetic beads; KPNB1-NUPR1 complex bound at 4 °C overnight, with ATZ-502 (1 µM) as inhibitor; eluted with RIPA buffer, immunoblot; source of the proteins not stated

Row | Molecule | binding [1] | binding [2]
1 | Cy5-labeled karyopherin β1 (KPNB1) (from UniProt Q14974 1-876) | binds | 
2 | GST-NUPR1 (nuclear protein-1) recombinant protein (natural protein, UniProt O60356 1-82, looked up, Nuclear protein-1 (NUPR1, p8/Com-1); Held on the PEG-coated quartz surface through neutravidin and a biotin-conjugated GST-tag antibody; No catalogue number is printed; also called p8; Com-1; source: bought: NOVUS Biologicals (recombinant protein)) MATFPPATSAPQQPPGPEDEDSSLDESDLYSLAHSYLGGGGRKGRTKREAAANTNRPSPGGHERKLVTKLQNSERKKRGARR |  | binds
